# Results taken from the supplement of paper PMC7666118.
# Protein sequences, listed by entry. Tags and fused reporters are not part of them. Lines headed by an entry give the natural chain unless they say otherwise; changes in a name come on top.
# UniProt P62333, whole entry: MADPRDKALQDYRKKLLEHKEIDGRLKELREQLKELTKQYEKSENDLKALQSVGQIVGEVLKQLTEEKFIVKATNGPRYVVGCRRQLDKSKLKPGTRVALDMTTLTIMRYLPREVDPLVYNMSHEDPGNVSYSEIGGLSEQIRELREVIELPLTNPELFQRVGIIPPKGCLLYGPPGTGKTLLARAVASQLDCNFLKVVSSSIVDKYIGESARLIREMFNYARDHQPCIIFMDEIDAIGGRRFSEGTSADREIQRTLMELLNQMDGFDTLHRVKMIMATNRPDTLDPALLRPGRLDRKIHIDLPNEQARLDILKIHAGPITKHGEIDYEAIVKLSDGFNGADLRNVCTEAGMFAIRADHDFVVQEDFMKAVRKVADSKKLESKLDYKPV
# UniProt Q9Y3L5: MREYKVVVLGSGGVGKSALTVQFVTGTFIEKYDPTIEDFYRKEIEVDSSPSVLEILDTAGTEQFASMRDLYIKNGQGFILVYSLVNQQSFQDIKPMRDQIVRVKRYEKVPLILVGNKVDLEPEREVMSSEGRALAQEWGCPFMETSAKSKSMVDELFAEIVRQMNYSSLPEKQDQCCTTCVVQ
# UniProt P09417: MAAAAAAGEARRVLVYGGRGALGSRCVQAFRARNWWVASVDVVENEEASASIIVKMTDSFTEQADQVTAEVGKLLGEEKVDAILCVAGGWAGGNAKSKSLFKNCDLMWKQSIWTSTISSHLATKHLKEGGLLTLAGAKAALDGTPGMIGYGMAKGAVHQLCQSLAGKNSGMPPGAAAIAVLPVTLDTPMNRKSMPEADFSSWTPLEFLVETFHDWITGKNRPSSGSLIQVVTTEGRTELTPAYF
# UniProt Q8WUK0: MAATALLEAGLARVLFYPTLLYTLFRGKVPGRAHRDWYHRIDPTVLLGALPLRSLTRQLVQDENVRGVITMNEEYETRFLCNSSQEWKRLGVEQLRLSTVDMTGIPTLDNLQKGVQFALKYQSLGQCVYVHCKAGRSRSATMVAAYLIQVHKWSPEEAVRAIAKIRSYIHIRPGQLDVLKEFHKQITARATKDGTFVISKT
# UniProt P28062: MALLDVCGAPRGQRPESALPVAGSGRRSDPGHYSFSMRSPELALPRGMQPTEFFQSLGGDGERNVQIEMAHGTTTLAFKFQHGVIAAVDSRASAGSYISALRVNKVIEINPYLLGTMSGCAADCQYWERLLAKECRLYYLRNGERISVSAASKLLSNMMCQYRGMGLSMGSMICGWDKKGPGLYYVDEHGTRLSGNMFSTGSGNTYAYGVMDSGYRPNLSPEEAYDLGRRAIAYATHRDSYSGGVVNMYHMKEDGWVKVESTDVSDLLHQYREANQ
# UniProt P20936: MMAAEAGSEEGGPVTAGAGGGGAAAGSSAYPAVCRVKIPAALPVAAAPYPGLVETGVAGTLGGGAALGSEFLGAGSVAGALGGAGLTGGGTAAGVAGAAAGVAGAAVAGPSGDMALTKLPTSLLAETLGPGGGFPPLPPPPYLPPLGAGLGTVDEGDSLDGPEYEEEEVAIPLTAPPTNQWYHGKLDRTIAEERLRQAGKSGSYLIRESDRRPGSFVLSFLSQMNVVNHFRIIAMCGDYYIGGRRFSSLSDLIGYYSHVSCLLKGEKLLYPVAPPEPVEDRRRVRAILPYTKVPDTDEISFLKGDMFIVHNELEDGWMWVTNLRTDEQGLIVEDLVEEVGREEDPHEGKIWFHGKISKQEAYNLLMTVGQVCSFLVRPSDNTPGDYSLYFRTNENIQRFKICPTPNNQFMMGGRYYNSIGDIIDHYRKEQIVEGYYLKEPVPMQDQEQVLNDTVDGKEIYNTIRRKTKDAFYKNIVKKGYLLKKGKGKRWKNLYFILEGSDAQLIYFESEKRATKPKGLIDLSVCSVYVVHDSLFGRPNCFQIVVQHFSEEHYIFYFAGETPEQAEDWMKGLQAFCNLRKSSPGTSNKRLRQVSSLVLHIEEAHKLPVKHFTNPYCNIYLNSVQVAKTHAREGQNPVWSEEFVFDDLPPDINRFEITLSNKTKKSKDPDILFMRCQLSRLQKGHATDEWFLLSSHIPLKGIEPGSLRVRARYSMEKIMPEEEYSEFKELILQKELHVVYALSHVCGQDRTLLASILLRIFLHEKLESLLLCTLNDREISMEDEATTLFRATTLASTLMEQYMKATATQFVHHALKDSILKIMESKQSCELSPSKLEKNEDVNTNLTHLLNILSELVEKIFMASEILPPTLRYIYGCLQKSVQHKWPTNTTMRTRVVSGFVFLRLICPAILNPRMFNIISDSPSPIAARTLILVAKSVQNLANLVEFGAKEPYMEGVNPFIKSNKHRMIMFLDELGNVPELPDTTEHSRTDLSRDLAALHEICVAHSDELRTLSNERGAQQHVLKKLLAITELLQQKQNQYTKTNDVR
# UniProt P23469: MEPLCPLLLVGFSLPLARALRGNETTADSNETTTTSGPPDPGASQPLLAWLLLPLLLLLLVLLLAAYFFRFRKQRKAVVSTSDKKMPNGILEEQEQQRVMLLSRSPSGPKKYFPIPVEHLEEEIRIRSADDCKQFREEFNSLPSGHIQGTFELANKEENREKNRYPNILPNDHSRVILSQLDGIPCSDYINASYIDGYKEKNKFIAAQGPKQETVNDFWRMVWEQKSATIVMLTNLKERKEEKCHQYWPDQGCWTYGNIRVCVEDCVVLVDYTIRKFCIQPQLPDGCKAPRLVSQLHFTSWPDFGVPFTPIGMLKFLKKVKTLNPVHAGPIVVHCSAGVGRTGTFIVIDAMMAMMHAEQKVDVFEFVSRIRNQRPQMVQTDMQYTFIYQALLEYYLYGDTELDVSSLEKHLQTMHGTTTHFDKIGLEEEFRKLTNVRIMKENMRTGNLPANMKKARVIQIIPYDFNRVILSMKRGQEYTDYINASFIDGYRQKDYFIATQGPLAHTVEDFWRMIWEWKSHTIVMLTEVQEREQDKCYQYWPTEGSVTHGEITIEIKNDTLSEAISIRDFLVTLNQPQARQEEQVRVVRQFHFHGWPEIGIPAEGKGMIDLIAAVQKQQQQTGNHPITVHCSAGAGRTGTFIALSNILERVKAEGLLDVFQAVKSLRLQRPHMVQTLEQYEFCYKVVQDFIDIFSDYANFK
# UniProt Q14997: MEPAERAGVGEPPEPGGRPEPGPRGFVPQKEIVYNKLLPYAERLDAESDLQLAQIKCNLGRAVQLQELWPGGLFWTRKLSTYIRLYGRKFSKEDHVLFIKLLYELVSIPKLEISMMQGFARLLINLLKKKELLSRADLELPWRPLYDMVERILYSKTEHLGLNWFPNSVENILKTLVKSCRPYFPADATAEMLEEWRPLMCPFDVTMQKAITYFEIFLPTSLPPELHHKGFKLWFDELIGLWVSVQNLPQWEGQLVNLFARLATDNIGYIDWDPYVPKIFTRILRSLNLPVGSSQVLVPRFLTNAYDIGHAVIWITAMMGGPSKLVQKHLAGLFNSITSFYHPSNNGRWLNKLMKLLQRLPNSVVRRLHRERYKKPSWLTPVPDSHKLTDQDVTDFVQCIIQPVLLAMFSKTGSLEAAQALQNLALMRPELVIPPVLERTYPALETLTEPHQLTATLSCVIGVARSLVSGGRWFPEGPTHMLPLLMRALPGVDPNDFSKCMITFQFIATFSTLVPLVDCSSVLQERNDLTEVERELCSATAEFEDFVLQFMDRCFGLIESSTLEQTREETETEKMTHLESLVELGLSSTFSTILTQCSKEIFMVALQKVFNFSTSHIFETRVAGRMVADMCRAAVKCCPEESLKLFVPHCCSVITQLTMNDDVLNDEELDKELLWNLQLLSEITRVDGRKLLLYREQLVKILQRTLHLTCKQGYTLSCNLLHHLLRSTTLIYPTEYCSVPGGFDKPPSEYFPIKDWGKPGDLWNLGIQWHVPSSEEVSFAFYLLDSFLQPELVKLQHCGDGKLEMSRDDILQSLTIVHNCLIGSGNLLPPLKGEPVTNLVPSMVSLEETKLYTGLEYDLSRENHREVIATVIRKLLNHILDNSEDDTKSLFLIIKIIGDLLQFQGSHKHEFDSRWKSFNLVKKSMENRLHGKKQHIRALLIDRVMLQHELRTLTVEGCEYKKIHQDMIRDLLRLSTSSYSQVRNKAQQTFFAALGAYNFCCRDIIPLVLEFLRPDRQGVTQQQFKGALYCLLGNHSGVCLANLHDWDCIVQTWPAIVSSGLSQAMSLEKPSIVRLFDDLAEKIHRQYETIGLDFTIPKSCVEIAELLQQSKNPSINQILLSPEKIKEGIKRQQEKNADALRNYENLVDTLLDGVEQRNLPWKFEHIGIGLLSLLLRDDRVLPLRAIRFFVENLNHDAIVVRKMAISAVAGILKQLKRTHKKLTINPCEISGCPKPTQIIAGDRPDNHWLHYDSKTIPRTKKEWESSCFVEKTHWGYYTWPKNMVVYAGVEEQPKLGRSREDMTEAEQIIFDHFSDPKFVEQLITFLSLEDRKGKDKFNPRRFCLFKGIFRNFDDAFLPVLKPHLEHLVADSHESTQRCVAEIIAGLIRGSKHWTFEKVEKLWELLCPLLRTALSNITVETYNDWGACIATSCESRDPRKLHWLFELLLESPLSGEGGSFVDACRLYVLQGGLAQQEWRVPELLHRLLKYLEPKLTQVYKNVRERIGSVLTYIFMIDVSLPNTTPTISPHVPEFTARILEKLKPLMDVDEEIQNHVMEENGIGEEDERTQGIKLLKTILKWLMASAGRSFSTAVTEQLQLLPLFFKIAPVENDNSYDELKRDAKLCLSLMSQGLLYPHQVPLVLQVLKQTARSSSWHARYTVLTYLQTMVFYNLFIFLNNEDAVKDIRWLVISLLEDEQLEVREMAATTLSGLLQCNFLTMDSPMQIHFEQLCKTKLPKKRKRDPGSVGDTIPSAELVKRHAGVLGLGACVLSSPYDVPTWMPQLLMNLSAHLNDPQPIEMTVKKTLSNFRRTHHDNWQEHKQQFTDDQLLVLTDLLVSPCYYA
# UniProt Q6Y1H2: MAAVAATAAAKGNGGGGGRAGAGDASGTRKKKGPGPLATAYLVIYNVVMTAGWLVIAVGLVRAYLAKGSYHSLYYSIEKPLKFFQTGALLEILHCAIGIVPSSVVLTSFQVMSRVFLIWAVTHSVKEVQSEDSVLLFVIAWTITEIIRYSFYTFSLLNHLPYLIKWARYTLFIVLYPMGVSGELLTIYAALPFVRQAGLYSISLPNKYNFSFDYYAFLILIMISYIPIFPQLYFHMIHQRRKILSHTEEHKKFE
# This is one part of the list.
# Compound: COc1ccc(Cn2ccc3ccc(C(=O)NO)cc32)cc1
# Assay: dose-dependent thermal stabilisation call (2D-TPP, DLPTP, 10% FDR) (binary (1 = stabilised)); higher = stabilised by the compound
# Conditions: system: HL-60 intact cells; concentration range 0.04-10 µM
row,Target,dose-dependent thermal stabilisation call
1,PSMC6 (UniProt P62333),inactive: 0
2,RAN (UniProt P62826),inactive: 0
3,RAP2C (UniProt Q9Y3L5),inactive: 0
4,QDPR (UniProt P09417),inactive: 0
5,PTPMT1 (UniProt Q8WUK0),inactive: 0
6,PSMB8 (UniProt P28062),inactive: 0
7,RASA1 (UniProt P20936),inactive: 0
8,PTPRE (UniProt P23469),inactive: 0
9,PSME4 (UniProt Q14997),inactive: 0
10,PTPLB (UniProt Q6Y1H2),inactive: 0
